This note sets out measurements from publication PMC12130737, “Taurine Alleviates Pancreatic β‐Cell Senescence by Inhibition of p53 Pathway” (Journal of Diabetes, 2025).

The chains behind the UniProt entries cited, without tags or fusion partners.
UniProt P02340: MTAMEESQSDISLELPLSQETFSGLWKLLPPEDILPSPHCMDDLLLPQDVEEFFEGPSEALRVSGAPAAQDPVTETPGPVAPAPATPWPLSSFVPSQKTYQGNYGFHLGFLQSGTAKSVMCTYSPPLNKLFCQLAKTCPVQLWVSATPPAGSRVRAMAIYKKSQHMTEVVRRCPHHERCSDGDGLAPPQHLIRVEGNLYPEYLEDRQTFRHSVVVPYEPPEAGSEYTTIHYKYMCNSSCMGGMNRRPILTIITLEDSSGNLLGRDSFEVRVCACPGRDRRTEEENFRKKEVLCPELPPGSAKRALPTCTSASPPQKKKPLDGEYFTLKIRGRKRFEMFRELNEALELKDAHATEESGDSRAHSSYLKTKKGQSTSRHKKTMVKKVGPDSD

Results are given in words; binding and its absence hold for the method and conditions named. Binding seen in cells or lysates may run through a third protein. Some entries that bind do so weakly or less than the wild type.

This experiment deals with T1, CDKN2AIP (mouse (endogenous in MIN6)) (UniProt Q8BI72).
T1 sequence: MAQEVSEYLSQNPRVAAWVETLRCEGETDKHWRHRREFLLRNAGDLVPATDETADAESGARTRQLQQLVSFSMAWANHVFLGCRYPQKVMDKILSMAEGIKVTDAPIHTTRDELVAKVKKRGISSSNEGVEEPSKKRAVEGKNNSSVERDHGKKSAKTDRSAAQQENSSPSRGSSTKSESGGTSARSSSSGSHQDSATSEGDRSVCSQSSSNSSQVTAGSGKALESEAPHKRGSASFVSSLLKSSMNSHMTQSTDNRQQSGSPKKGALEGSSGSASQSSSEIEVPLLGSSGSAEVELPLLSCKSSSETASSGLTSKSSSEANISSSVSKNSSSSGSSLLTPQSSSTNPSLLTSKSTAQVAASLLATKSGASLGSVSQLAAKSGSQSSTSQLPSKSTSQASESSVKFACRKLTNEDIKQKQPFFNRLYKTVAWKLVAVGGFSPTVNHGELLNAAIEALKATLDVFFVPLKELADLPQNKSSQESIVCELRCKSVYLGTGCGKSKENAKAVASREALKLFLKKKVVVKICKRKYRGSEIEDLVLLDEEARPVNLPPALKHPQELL
As to the kind of experiment: co-IP; MIN6 cells treated with taurine (100 uM, 24 h) or vehicle; lysate (50 mM Tris-HCl pH 7.4, 150 mM NaCl, 1% NP-40, 0.5% sodium deoxycholate, 0.1% SDS) incubated with anti-CDKN2AIP antibody or control IgG overnight at 4°C, protein A/G agarose beads, immunoblot. On the technique in general: In western blotting, separated proteins are transferred to a membrane and probed.

In the case of p53 (from UniProt P02340 1-390), the binding entry is on record as “binds”.
